In this test the target is Influenza A virus non-structural protein 1 (NS1), strain A/Puerto Rico/8/1934(H1N1) (Influenza A virus A/Puerto Rico/8/1934(H1N1)) (UniProt P03496). The test can be described thus: affinity purification with mass spectrometry.

The chains behind the UniProt entries cited, without tags or fusion partners.
UniProt P03496: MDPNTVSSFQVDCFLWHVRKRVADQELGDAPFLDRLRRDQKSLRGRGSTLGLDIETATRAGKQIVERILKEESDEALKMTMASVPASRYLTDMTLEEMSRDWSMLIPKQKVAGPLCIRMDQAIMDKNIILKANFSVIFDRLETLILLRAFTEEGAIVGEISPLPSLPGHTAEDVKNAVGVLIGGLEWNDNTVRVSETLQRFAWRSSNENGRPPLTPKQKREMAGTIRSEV

Results are given in words; binding and its absence hold for the method and conditions named. Binding seen in cells or lysates may run through a third protein. Here binding means that the protein was enriched with, or labelled near, the bait; the list need not be complete.

B1: U3 small nucleolar RNA-associated protein 15 homolog (protein, UniProt Q8TED0 1-518)
chain: MAGYKPVAIQTYPILGEKITQDTLYWNNYKTPVQIKEFGAVSKVDFSPQPPYNYAVTASSRIHIYGRYSQEPIKTFSRFKDTAYCATFRQDGRLLVAGSEDGGVQLFDISGRAPLRQFEGHTKAVHTVDFTADKYHVVSGADDYTVKLWDIPNSKEILTFKEHSDYVRCGCASKLNPDLFITGSYDHTVKMFDARTSESVLSVEHGQPVESVLLFPSGGLLVSAGGRYVKVWDMLKGGQLLVSLKNHHKTVTCLCLSSSGQRLLSGSLDRKVKVYSTTSYKVVHSFDYAASILSLALAHEDETIVVGMTNGILSVKHRKSEAKKESLPRRRRPAYRTFIKGKNYMKQRDDILINRPAKKHLELYDRDLKHFRISKALDRVLDPTCTIKTPEITVSIIKELNRRGVLANALAGRDEKEISHVLNFLIRNLSQPRFAPVLINAAEIIIDIYLPVIGQSPVVDKKFLLLQGLVEKEIDYQRELLETLGMMDMLFATMRRKEGTSVLEHTSDGFPENKKIES
In the case of B1, the binding result is “binds”.

B2: Treacle protein (protein, UniProt Q13428 1-1488)
chain: MAEARKRRELLPLIYHHLLRAGYVRAAREVKEQSGQKCFLAQPVTLLDIYTHWQQTSELGRKRKAEEDAALQAKKTRVSDPISTSESSEEEEEAEAETAKATPRLASTNSSVLGADLPSSMKEKAKAETEKAGKTGNSMPHPATGKTVANLLSGKSPRKSAEPSANTTLVSETEEEGSVPAFGAAAKPGMVSAGQADSSSEDTSSSSDETDVEGKPSVKPAQVKASSVSTKESPARKAAPAPGKVGDVTPQVKGGALPPAKRAKKPEEESESSEEGSESEEEAPAGTRSQVKASEKILQVRAASAPAKGTPGKGATPAPPGKAGAVASQTKAGKPEEDSESSSEESSDSEEETPAAKALLQAKASGKTSQVGAASAPAKESPRKGAAPAPPGKTGPAVAKAQAGKREEDSQSSSEESDSEEEAPAQAKPSGKAPQVRAASAPAKESPRKGAAPAPPRKTGPAAAQVQVGKQEEDSRSSSEESDSDREALAAMNAAQVKPLGKSPQVKPASTMGMGPLGKGAGPVPPGKVGPATPSAQVGKWEEDSESSSEESSDSSDGEVPTAVAPAQEKSLGNILQAKPTSSPAKGPPQKAGPVAVQVKAEKPMDNSESSEESSDSADSEEAPAAMTAAQAKPALKIPQTKACPKKTNTTASAKVAPVRVGTQAPRKAGTATSPAGSSPAVAGGTQRPAEDSSSSEESDSEEEKTGLAVTVGQAKSVGKGLQVKAASVPVKGSLGQGTAPVLPGKTGPTVTQVKAEKQEDSESSEEESDSEEAAASPAQVKTSVKKTQAKANPAAARAPSAKGTISAPGKVVTAAAQAKQRSPSKVKPPVRNPQNSTVLARGPASVPSVGKAVATAAQAQTGPEEDSGSSEEESDSEEEAETLAQVKPSGKTHQIRAALAPAKESPRKGAAPTPPGKTGPSAAQAGKQDDSGSSSEESDSDGEAPAAVTSAQVIKPPLIFVDPNRSPAGPAATPAQAQAASTPRKARASESTARSSSSESEDEDVIPATQCLTPGIRTNVVTMPTAHPRIAPKASMAGASSSKESSRISDGKKQEGPATQVSKKNPASLPLTQAALKVLAQKASEAQPPVARTQPSSGVDSAVGTLPATSPQSTSVQAKGTNKLRKPKLPEVQQATKAPESSDDSEDSSDSSSGSEEDGEGPQGAKSAHTLGPTPSRTETLVEETAAESSEDDVVAPSQSLLSGYMTPGLTPANSQASKATPKLDSSPSVSSTLAAKDDPDGKQEAKPQQAAGMLSPKTGGKEAASGTTPQKSRKPKKGAGNPQASTLALQSNITQCLLGQPWPLNEAQVQASVVKVLTELLEQERKKVVDTTKESSRKGWESRKRKLSGDQPAARTPRSKKKKKLGAGEGGEASVSPEKTSTTSKGKAKRDKASGDVKEKKGKGSLGSQGAKDEPEEELQKGMGTVEGGDQSNPKSKKEKKKSDKRKKDKEKKEKKKKAKKASTKDSESPSQKKKKKKKKTAEQTV
As to B2, the binding result is “binds”.

B3: U3 small nucleolar RNA-associated protein 18 homolog (protein, UniProt Q9Y5J1 1-556)
chain: MPPERRRRMKLDRRTGAKPKRKPGMRPDWKAGAGPGGPPQKPAPSSQRKPPARPSAAAAAIAVAAAEEERRLRQRNRLRLEEDKPAVERCLEELVFGDVENDEDALLRRLRGPRVQEHEDSGDSEVENEAKGNFPPQKKPVWVDEEDEDEEMVDMMNNRFRKDMMKNASESKLSKDNLKKRLKEEFQHAMGGVPAWAETTKRKTSSDDESEEDEDDLLQRTGNFISTSTSLPRGILKMKNCQHANAERPTVARISSVQFHPGAQIVMVAGLDNAVSLFQVDGKTNPKIQSIYLERFPIFKACFSANGEEVLATSTHSKVLYVYDMLAGKLIPVHQVRGLKEKIVRSFEVSPDGSFLLINGIAGYLHLLAMKTKELIGSMKINGRVAASTFSSDSKKVYASSGDGEVYVWDVNSRKCLNRFVDEGSLYGLSIATSRNGQYVACGSNCGVVNIYNQDSCLQETNPKPIKAIMNLVTGVTSLTFNPTTEILAIASEKMKEAVRLVHLPSCTVFSNFPVIKNKNISHVHTMDFSPRSGYFALGNEKGKALMYRLHHYSDF
On to B3, for which the binding result is reported as “binds”.

B4: ATP-dependent RNA helicase DDX24 (protein, UniProt Q9GZR7 1-859)
chain: MKLKDTKSRPKQSSCGKFQTKGIKVVGKWKEVKIDPNMFADGQMDDLVCFEELTDYQLVSPAKNPSSLFSKEAPKRKAQAVSEEEEEEEGKSSSPKKKIKLKKSKNVATEGTSTQKEFEVKDPELEAQGDDMVCDDPEAGEMTSENLVQTAPKKKKNKGKKGLEPSQSTAAKVPKKAKTWIPEVHDQKADVSAWKDLFVPRPVLRALSFLGFSAPTPIQALTLAPAIRDKLDILGAAETGSGKTLAFAIPMIHAVLQWQKRNAAPPPSNTEAPPGETRTEAGAETRSPGKAEAESDALPDDTVIESEALPSDIAAEARAKTGGTVSDQALLFGDDDAGEGPSSLIREKPVPKQNENEEENLDKEQTGNLKQELDDKSATCKAYPKRPLLGLVLTPTRELAVQVKQHIDAVARFTGIKTAILVGGMSTQKQQRMLNRRPEIVVATPGRLWELIKEKHYHLRNLRQLRCLVVDEADRMVEKGHFAELSQLLEMLNDSQYNPKRQTLVFSATLTLVHQAPARILHKKHTKKMDKTAKLDLLMQKIGMRGKPKVIDLTRNEATVETLTETKIHCETDEKDFYLYYFLMQYPGRSLVFANSISCIKRLSGLLKVLDIMPLTLHACMHQKQRLRNLEQFARLEDCVLLATDVAARGLDIPKVQHVIHYQVPRTSEIYVHRSGRTARATNEGLSLMLIGPEDVINFKKIYKTLKKDEDIPLFPVQTKYMDVVKERIRLARQIEKSEYRNFQACLHNSWIEQAAAALEIELEEDMYKGGKADQQEERRRQKQMKVLKKELRHLLSQPLFTESQKTKYPTQSGKPPLLVSAPSKSESALSCLSKQKKKKTKKPKEPQPEQPQPSTSAN
With B4, the binding entry was “binds”.

B5: Lamina-associated polypeptide 2, isoform alpha (protein, UniProt P42166 1-694)
chain: MPEFLEDPSVLTKDKLKSELVANNVTLPAGEQRKDVYVQLYLQHLTARNRPPLPAGTNSKGPPDFSSDEEREPTPVLGSGAAAAGRSRAAVGRKATKKTDKPRQEDKDDLDVTELTNEDLLDQLVKYGVNPGPIVGTTRKLYEKKLLKLREQGTESRSSTPLPTISSSAENTRQNGSNDSDRYSDNEEGKKKEHKKVKSTRDIVPFSELGTTPSGGGFFQGISFPEISTRPPLGSTELQAAKKVHTSKGDLPREPLVATNLPGRGQLQKLASERNLFISCKSSHDRCLEKSSSSSSQPEHSAMLVSTAASPSLIKETTTGYYKDIVENICGREKSGIQPLCPERSHISDQSPLSSKRKALEESESSQLISPPLAQAIRDYVNSLLVQGGVGSLPGTSNSMPPLDVENIQKRIDQSKFQETEFLSPPRKVPRLSEKSVEERDSGSFVAFQNIPGSELMSSFAKTVVSHSLTTLGLEVAKQSQHDKIDASELSFPFHESILKVIEEEWQQVDRQLPSLACKYPVSSREATQILSVPKVDDEILGFISEATPLGGIQAASTESCNQQLDLALCRAYEAAASALQIATHTAFVAKAMQADISQAAQILSSDPSRTHQALGILSKTYDAASYICEAAFDEVKMAAHTMGNATVGRRYLWLKDCKINLASKNKLASTPFKGGTLFGGEVCKVIKKRGNKH
Turning to B5, the binding entry is recorded as “binds”.

B6: Transformer-2 protein homolog alpha (protein, UniProt Q13595 1-282)
chain: MSDVEENNFEGRESRSQSKSPTGTPARVKSESRSGSRSPSRVSKHSESHSRSRSKSRSRSRRHSHRRYTRSRSHSHSHRRRSRSRSYTPEYRRRRSRSHSPMSNRRRHTGSRANPDPNTCLGVFGLSLYTTERDLREVFSRYGPLSGVNVVYDQRTGRSRGFAFVYFERIDDSKEAMERANGMELDGRRIRVDYSITKRAHTPTPGIYMGRPTHSGGGGGGGGGGGGGGGGRRRDSYYDRGYDRGYDRYEDYDYRYRRRSPSPYYSRYRSRSRSRSYSPRRY
With B6, the binding result was “binds”.

B7: Testis-expressed sequence 10 protein (protein, UniProt Q9NXF1 1-929)
chain: MTKKRKRQHDFQKVKLKVGKKKPKLQNATPTNFKTKTIHLPEQLKEDGTLPTNNRKLNIKDLLSQMHHYNAGVKQSALLGLKDLLSQYPFIIDAHLSNILSEVTAVFTDKDANVRLAAVQLLQFLAPKIRAEQISPFFPLVSAHLSSAMTHITEGIQEDSLKVLDILLEQYPALITGRSSILLKNFVELISHQQLSKGLINRDRSQSWILSVNPNRRLTSQQWRLKVLVRLSKFLQALADGSSRLRESEGLQEQKENPHATSNSIFINWKEHANDQQHIQVYENGGSQPNVSSQFRLRYLVGGLSGVDEGLSSTENLKGFIEIIIPLLIECWVEAVPPQLATPVGNGIEREPLQVMQQVLNIISLLWKLSKQQDETHKLESWLRKNYLIDFKHHFMSRFPYVLKEITKHKRKEPNKSIKHCTVLSNNIDHLLLNLTLSDIMVSLANASTLQKDCSWIEMIRKFVTETLEDGSRLNSKQLNRLLGVSWRLMQIQPNREDTETLIKAVYTLYQQRGLILPVRTLLLKFFSKIYQTEELRSCRFRYRSKVLSRWLAGLPLQLAHLGSRNPELSTQLIDIIHTAAARANKELLKSLQATALRIYDPQEGAVVVLPADSQQRLVQLVYFLPSLPADLLSRLSRCCIMGRLSSSLAAMLIGILHMRSSFSGWKYSAKDWLMSDVDYFSFLFSTLTGFSKEELTWLQSLRGVPHVIQTQLSPVLLYLTDLDQFLHHWDVTEAVFHSLLVIPARSQNFDILQSAISKHLVGLTVIPDSTAGCVFGVICKLLDHTCVVSETLLPFLASCCYSLLYFLLTIEKGEAEHLRKRDKLWGVCVSILALLPRVLRLMLQSLRVNRVGPEELPVVGQLLRLLLQHAPLRTHMLTNAILVQQIIKNITTLKSGSVQEQWLTDLHYCFNVYITGHPQGPSALATVY
For B7, the binding entry is reported as “binds”.

B8: U3 small nucleolar RNA-associated protein 14 homolog A (protein, UniProt Q9BVJ6 1-771)
chain: MTANRLAESLLALSQQEELADLPKDYLLSESEDEGDNDGERKHQKLLEAISSLDGKNRRKLAERSEASLKVSEFNVSSEGSGEKLVLADLLEPVKTSSSLATVKKQLSRVKSKKTVELPLNKEEIERIHREVAFNKTAQVLSKWDPVVLKNRQAEQLVFPLEKEEPAIAPIEHVLSGWKARTPLEQEIFNLLHKNKQPVTDPLLTPVEKASLRAMSLEEAKMRRAELQRARALQSYYEAKARREKKIKSKKYHKVVKKGKAKKALKEFEQLRKVNPAAALEELEKIEKARMMERMSLKHQNSGKWAKSKAIMAKYDLEARQAMQEQLSKNKELTQKLQVASESEEEEGGTEDVEELLVPDVVNEVQMNADGPNPWMLRSCTSDTKEAATQEDPEQLPELEAHGVSESEGEERPVAEEEILLREFEERRSLRKRSELSQDAEPAGSQETKDSGSQEVLSELRVLSQKLKENHQSRKQKASSEGTIPQVQREEPAPEEEEPLLLQRPERVQTLEELEELGKEECFQNKELPRPVLEGQQSERTPNNRPDAPKEKKKKEQMIDLQNLLTTQSPSVKSLAVPTIEELEDEEERNHRQMIKEAFAGDDVIRDFLKEKREAVEASKPKDVDLTLPGWGEWGGVGLKPSAKKRRRFLIKAPEGPPRKDKNLPNVIINEKRNIHAAAHQVRVLPYPFTHHWQFERTIQTPIGSTWNTQRAFQKLTTPKVVTKPGHIINPIKAEDVGYRSSSRSDLSVIQRNPKRITTRHKKQLKKCSVD
Turning to B8, the binding entry is on record as “binds”.

The record behind these values is article PMC6316800.
